These are yes or no findings as the source states them, for the method shown. Binding seen in cells or lysates may run through a third protein. Some entries that bind do so weakly or less than the wild type.
Experiments:
[1] = target: GLP (H3K9 methyltransferase GLP/EHMT1), endogenous in MCF7 lysates (human) (UniProt Q9H9B1); assay: co-immunoprecipitation from MCF7 lysates, immunoblot
[2] = target: histone methyltransferase G9a (H3K9 methyltransferase G9a/EHMT2), endogenous in MCF7 lysates (human) (UniProt Q96KQ7); assay: as above
[3] = target: GLP (H3K9 methyltransferase GLP/EHMT1), endogenous in MCF7 lysates (human) (UniProt Q9H9B1); assay: co-immunoprecipitation from MCF7 lysates, immunoblot (FIG. 7)
[4] = target: histone methyltransferase G9a (H3K9 methyltransferase G9a/EHMT2), endogenous in MCF7 lysates (human) (UniProt Q96KQ7); assay: as above
[5] = target: histone methyltransferase G9a (H3K9 methyltransferase G9a/EHMT2), endogenous in MCF7 lysates (human) (UniProt Q96KQ7); assay: co-immunoprecipitation, immunoblot
[6] = target: GLP (H3K9 methyltransferase GLP/EHMT1), endogenous in MCF7 lysates (human) (UniProt Q9H9B1); assay: co-immunoprecipitation (CDYL2 IP) from MCF7 lysates, immunoblot
[7] = target: histone methyltransferase G9a (H3K9 methyltransferase G9a/EHMT2), endogenous in MCF7 lysates (human) (UniProt Q96KQ7); assay: as above

Chains of the proteins cited; added tags and fusions are not shown. Residues count along the entry.
UniProt Q9H9B1, residues 2-1298: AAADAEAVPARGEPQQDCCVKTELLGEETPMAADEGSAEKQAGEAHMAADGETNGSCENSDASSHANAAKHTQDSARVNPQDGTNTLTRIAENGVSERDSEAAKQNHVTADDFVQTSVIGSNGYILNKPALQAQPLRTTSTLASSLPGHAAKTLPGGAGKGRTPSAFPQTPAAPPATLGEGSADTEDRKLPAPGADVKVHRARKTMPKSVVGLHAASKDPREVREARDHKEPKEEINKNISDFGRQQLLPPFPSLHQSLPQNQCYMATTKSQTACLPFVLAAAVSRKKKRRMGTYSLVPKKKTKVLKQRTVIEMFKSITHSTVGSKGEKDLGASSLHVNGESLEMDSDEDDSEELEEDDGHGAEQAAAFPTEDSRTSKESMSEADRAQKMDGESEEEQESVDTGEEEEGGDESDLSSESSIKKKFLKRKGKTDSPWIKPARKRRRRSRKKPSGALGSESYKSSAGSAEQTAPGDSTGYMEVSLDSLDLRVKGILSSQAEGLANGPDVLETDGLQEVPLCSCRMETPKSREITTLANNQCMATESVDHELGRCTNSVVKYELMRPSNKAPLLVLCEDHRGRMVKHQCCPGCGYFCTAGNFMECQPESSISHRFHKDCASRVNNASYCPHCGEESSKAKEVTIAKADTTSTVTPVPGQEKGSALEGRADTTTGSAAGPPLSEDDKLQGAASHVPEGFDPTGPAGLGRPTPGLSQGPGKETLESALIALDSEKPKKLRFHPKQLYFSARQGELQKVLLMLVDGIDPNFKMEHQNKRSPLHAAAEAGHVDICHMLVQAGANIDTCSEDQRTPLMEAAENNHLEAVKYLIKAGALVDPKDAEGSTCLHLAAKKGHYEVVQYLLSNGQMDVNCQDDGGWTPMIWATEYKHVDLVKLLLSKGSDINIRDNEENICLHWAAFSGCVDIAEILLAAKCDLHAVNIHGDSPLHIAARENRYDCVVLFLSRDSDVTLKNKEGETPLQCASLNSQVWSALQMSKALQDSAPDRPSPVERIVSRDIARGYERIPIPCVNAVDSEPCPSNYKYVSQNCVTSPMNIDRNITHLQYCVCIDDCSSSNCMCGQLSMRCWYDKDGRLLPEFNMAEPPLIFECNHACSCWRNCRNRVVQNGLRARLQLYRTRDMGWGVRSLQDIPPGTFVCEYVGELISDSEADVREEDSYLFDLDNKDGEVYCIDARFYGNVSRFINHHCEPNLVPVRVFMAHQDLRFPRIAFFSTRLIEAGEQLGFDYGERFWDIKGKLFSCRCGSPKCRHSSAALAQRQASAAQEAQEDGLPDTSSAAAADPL
UniProt Q96KQ7, residues 2-1210: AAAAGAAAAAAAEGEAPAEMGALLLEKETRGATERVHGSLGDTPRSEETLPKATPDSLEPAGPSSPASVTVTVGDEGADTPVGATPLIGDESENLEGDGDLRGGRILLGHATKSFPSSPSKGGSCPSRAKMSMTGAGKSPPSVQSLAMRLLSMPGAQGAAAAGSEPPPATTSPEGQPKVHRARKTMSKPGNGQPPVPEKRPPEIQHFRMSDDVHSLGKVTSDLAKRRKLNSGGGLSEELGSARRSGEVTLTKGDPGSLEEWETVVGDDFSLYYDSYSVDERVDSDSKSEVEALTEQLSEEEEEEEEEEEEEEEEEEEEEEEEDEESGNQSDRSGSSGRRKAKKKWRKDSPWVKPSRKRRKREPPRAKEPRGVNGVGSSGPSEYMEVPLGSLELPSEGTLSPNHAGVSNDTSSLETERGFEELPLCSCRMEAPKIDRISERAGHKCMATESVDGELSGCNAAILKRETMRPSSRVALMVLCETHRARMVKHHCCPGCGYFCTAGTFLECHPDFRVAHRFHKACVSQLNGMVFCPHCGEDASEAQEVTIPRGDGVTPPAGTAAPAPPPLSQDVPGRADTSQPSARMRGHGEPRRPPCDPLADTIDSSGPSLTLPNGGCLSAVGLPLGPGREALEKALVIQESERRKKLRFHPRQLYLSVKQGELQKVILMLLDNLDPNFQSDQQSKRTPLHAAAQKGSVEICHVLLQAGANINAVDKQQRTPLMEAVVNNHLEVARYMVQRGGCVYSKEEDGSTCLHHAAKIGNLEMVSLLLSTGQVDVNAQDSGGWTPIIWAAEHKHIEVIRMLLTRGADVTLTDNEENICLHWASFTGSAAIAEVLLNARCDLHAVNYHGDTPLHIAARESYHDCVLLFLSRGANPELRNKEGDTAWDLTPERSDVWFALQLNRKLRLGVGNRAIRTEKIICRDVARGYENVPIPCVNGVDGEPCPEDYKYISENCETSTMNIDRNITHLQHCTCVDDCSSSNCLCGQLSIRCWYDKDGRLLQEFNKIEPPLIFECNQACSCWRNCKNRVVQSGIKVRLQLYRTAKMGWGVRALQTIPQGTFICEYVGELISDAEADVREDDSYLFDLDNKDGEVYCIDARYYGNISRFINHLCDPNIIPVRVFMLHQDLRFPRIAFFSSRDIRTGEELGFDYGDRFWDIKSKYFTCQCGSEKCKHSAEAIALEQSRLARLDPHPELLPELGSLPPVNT

- binding [1]: binds
- binding [2]: binds
- binding [3]: binds
- binding [4]: binds
- binding [5]: binds
- binding [6]: binds
- binding [7]: binds
B1: Chromodomain on Y-like 2 (CDYL2), endogenous protein in MCF7 / HEK293T cell lysates (protein)
chain: MASGDLYEVERIVDKRKNKKGKWEYLIRWKGYGSTEDTWEPEHHLLHCEEFIDEFNGLHMSKDKRIKSGKQSSTSKLLRDSRGPSVEKLSHRPSDPGKSKGTSHKRKRINPPLAKPKKGYSGKPSSGGDRATKTVSYRTTPSGLQIMPLKKSQNGMENGDAGSEKDERHFGNGSHQPGLDLNDHVGEQDMGECDVNHATLAENGLGSALTNGGLNLHSPVKRKLEAEKDYVFDKRLRYSVRQNESNCRFRDIVVRKEEGFTHILLSSQTSDNNALTPEIMKEVRRALCNAATDDSKLLLLSAVGSVFCSGLDYSYLIGRLSSDRRKESTRIAEAIRDFVKAFIQFKKPIVVAINGPALGLGASILPLCDIVWASEKAWFQTPYATIRLTPAGCSSYTFPQILGVALANEMLFCGRKLTAQEACSRGLVSQVFWPTTFSQEVMLRVKEMASCSAVVLEESKCLVRSFLKSVLEDVNEKECLMLKQLWSSSKGLDSLFSYLQDKIYEV

— patent publication US20230070181A1
